Data taken from article PMC12118337 (Chembiochem, 2025).
HELM strings list residues between dots; [ac] is acetyl, [am] amide, other brackets name non-standard units.

Experiment: general procedure: Fmoc solid-phase peptide synthesis; rink amide resin (Novabiochem); HBTU/HOBt/NMM
Details: whole synthesis, 230 nm

Substance	final LC-MS purity [%]
PEPTIDE1{[ac].Q.T.E.[Pmp].A.T.I.K.H.P.[am]}$$$$V2.0	98.2
PEPTIDE1{[ac].Q.T.E.[L-OMT].A.T.I.K.H.P.[am]}$$$$V2.0	100
PEPTIDE1{[ac].E.Q.T.E.[pY].A.T.I.V.F.P.[am]}$$$$V2.0	97.2
FAM-rrrrrrrr-dPEG2-QTE(L-OMT)ATIKHP-NH2	100
FAM-QTE(pY)ATIKHP-NH2	98.0
